According to patent publication US6054441A, “Oxypurine nucleosides and their congeners, and acyl derivatives thereof, for improvement of hematopoiesis” (priority 1995, dated 2000):
For at least one compound, name, drawing or mass did not settle the structure.

Legend:
FDCPmix cells = assay: Proliferation of FDCPmix cells, MTT assay (Example 69); type: cell-based; settings: 10 micrograms/ml down
Protocol: The FDCPmix cell line was used as a suitable in vitro model for predicting the effects of hematopoietic factors on pluripotential stem cells. These cells can be maintained in an-undifferentiated state in the presence of IL-3 or undergo multi-lineage development in the presence of specific hematopoietic growth factors.
This level of proliferation (100%) served as the control value. Inhibition of proliferation by test compounds was represented as a percent of control.
FDCPmix cells were plated at a density of 5×10^4 cells per well in 96-well plates (5×10^5 /ml) using IMDM medium plus 10% fetal bovine serum. […] Test compounds were added at a decreasing concentrations ranging from 10 micrograms/ml down to 1 nanogram/ml. The test compounds included: 3',5'-O-N^2 -tripalmitoyl-2'-deoxyguanosine, 3',5'-di-O-palmitoyl-2'-deoxyguanosine, 3',5'-O-N^2 -trioctanoyl-2'-deoxyguanosine, 3',5'-di-O-octanoyl-2'-deoxyguanosine, and 3',5'-O-N^2 -trioleyl-2'-deoxyguanosine.

[1] = test system: hematopoietic recovery after cyclophosphamide; assay: Hematopoietic recovery after cyclophosphamide, acyl chain length (Example 38); type: in vivo, Balb/C mice; settings: day 7; guanosine 5, acyl derivatives 2.5 μmoles/mouse/day i.p.
Protocol: Cyclophosphamide (CP) (275 mg/kg, i.p.) was administered to 70 Balb/C female mice weighing approximately 20 grams each. Twenty-four hours later and each day thereafter for a total of 6 days, mice were given a 0.4 ml i.p injection of either physiological saline (controls), Tween 80 (0.2%), guanosine (5 μmoles/mouse/day in 0.2% Tween 80), or 2.5 μmoles per mouse per day of one of the following acylated derivatives of guanosine in 0.2% Tween 80: triacetylguanosine, octanoylguanosine, lauroylguanosine, or palmitoylguanosine. On day 7 following CP administration all 10 animals from each of the 7 groups were bled, and then sacrificed by cervical dislocation. Spleens were removed and weighed, and complete blood counts performed.

**Q.** Which inhibition of proliferation (FDCPmix cells) does the source give for `CCCCCCCCCCCCCCCC(=O)OC[C@H]1O[C@@H](n2cnc3c(=O)[nH]c(N)nc32)C[C@@H]1OC(=O)CCCCCCCCCCCCCCC` [DiPdG, 3',5'-O-dipalmitoyl-2'-deoxyguanosine] here?
**A.** The inhibition of proliferation was “significant dose-dependent inhibitory effects at doses from 10 micrograms per ml down to 100 nanograms per ml”.

**Q.** How did the spleen weight [1] turn out when `CC(=O)OC[C@H]1O[C@@H](n2cnc3c(=O)[nH]c(N)nc32)[C@H](OC(C)=O)[C@@H]1OC(C)=O` [acetylguanosine, triacetylguanosine] was run?
**A.** The spleen weight was “significantly larger spleens”.
